# According to the supplement of paper PMC8728848:
# The list shows a part of the results.
# Legend:
# Assay in all cases: glycan array binding signal (z-score within array); higher = stronger binding
# Conditions in all cases: glycan notation: IUPAC condensed, linker removed
# [1] = molecular target: Man(a1-3)[Man(a1-6)]Man(a1-6)[Man(a1-3)]Man
# Procedure, shortened: (§1)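 Columns mapping to the same glycan were averaged after glycan names were converted to IUPAC-condensed notation. The data come from 3228 arrays in the Consortium for Functional Glycomics database, limited to those with an available protein sequence. Binding is reported as a within-array Z-score averaged across arrays of one protein sequence and across linkers.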
# [2] = molecular target: Man(a1-3)[Man(a1-6)]Man(a1-6)[Man(a1-3)]Man(b1-4)GlcNAc(b1-4)GlcNAc
# Procedure, shortened: as §1
# [3] = molecular target: Man(a1-3)[Man(a1-6)]Man(b1-4)GlcNAc(b1-4)GlcNAc
# Procedure, shortened: as §1
# [4] = molecular target: Man(a1-3)[Man(a1-6)]Man(b1-4)GlcNAc(b1-4)[Fuc(a1-6)]GlcNAc
# Procedure, shortened: as §1
# Man(a1-6)Man = molecular target: Man(a1-6)Man
# Procedure, shortened: as §1
# Man(b1-4)GlcNAc = molecular target: Man(b1-4)GlcNAc
# Procedure, shortened: as §1
# MurNAc(b1-4)GlcNAc = molecular target: MurNAc(b1-4)GlcNAc
# Procedure, shortened: as §1
# Neu5Ac(a2-3)Gal = molecular target: Neu5Ac(a2-3)Gal
# Procedure, shortened: as §1
# [5] = molecular target: Neu5Ac(a2-3)Gal(b1-3)GalNAc
# Procedure, shortened: as §1
# [6] = molecular target: Neu5Ac(a2-3)Gal(b1-3)GalNAc(b1-3)Gal(a1-4)Gal(b1-4)Glc
# Procedure, shortened: as §1
# [7] = molecular target: Neu5Ac(a2-3)Gal(b1-3)GalNAc(b1-4)Gal(b1-4)Glc
# Procedure, shortened: as §1
# [8] = molecular target: Neu5Ac(a2-3)Gal(b1-3)GalNAc(b1-4)[Neu5Ac(a2-3)]Gal(b1-4)Glc
# Procedure, shortened: as §1
# [9] = molecular target: Neu5Ac(a2-3)Gal(b1-3)GalNAc(b1-4)[Neu5Ac(a2-8)Neu5Ac(a2-3)]Gal(b1-4)Glc
# Procedure, shortened: as §1
# [10] = molecular target: Neu5Ac(a2-3)Gal(b1-3)GalNAc6S
# Procedure, shortened: as §1
# [11] = molecular target: Neu5Ac(a2-3)Gal(b1-3)GlcNAc
# Procedure, shortened: as §1
# [12] = molecular target: Neu5Ac(a2-3)Gal(b1-3)GlcNAc(b1-2)Man
# Procedure, shortened: as §1
# [13] = molecular target: Neu5Ac(a2-3)Gal(b1-3)GlcNAc(b1-2)Man(a1-3)[GlcNAc(b1-4)][Neu5Ac(a2-3)Gal(b1-3)GlcNAc(b1-2)Man(a1-6)]Man(b1-4)GlcNAc(b1-4)GlcNAc
# Procedure, shortened: as §1
# [14] = molecular target: Neu5Ac(a2-3)Gal(b1-3)GlcNAc(b1-2)Man(a1-3)[Neu5Ac(a2-3)Gal(b1-3)GlcNAc(b1-2)Man(a1-6)]Man(b1-4)GlcNAc(b1-4)GlcNAc
# Procedure, shortened: as §1
# [15] = molecular target: Neu5Ac(a2-3)Gal(b1-3)GlcNAc(b1-2)[Neu5Ac(a2-3)Gal(b1-3)GlcNAc(b1-4)]Man(a1-6)[Neu5Ac(a2-3)Gal(b1-3)GlcNAc(b1-2)Man(a1-3)]Man(b1-4)GlcNAc(b1-4)GlcNAc
# Procedure, shortened: as §1
# [16] = molecular target: Neu5Ac(a2-3)Gal(b1-3)GlcNAc(b1-3)Gal(b1-3)GlcNAc
# Procedure, shortened: as §1
# [17] = molecular target: Neu5Ac(a2-3)Gal(b1-3)GlcNAc(b1-3)Gal(b1-4)GlcNAc
# Procedure, shortened: as §1
# [18] = molecular target: Neu5Ac(a2-3)Gal(b1-3)GlcNAc(b1-3)GalNAc
# Procedure, shortened: as §1
# [19] = molecular target: Neu5Ac(a2-3)Gal(b1-3)GlcNAc(b1-6)GalNAc
# Procedure, shortened: as §1
# [20] = molecular target: Neu5Ac(a2-3)Gal(b1-3)GlcNAc6S
# Procedure, shortened: as §1
# [21] = molecular target: Neu5Ac(a2-3)Gal(b1-3)[Fuc(a1-4)]GlcNAc
# Procedure, shortened: as §1
# [22] = molecular target: Neu5Ac(a2-3)Gal(b1-3)[Fuc(a1-4)]GlcNAc(b1-3)Gal(b1-3)[Fuc(a1-4)]GlcNAc
# Procedure, shortened: as §1
# [23] = molecular target: Neu5Ac(a2-3)Gal(b1-3)[Fuc(a1-4)]GlcNAc(b1-3)Gal(b1-4)[Fuc(a1-3)]GlcNAc
# Procedure, shortened: as §1
# [24] = molecular target: Neu5Ac(a2-3)Gal(b1-3)[GlcNAc(b1-6)]GalNAc
# Procedure, shortened: as §1
# [25] = molecular target: Neu5Ac(a2-3)Gal(b1-3)[Neu5Ac(a2-6)]GalNAc
# Procedure, shortened: as §1
# [26] = molecular target: Neu5Ac(a2-3)Gal(b1-3)[Neu5Ac(a2-6)]GlcNAc(b1-3)[Fuc(a1-3)[Gal(b1-4)]GlcNAc(b1-6)]Gal(b1-4)Glc
# Procedure, shortened: as §1
# [27] = molecular target: Neu5Ac(a2-3)Gal(b1-3)]Neu5Ac(a2-3)Gal(b1-4)]GlcNAc
# Procedure, shortened: as §1
# Neu5Ac(a2-3)Gal(b1-4)Glc = molecular target: Neu5Ac(a2-3)Gal(b1-4)Glc
# Procedure, shortened: as §1
# [28] = molecular target: Neu5Ac(a2-3)Gal(b1-4)GlcNAc
# Procedure, shortened: as §1
# [29] = molecular target: Neu5Ac(a2-3)Gal(b1-4)GlcNAc(b1-2)Man
# Procedure, shortened: as §1
# [30] = molecular target: Neu5Ac(a2-3)Gal(b1-4)GlcNAc(b1-2)Man(a1-3)[GlcNAc(b1-4)][Neu5Ac(a2-3)Gal(b1-4)GlcNAc(b1-2)Man(a1-6)]Man(b1-4)GlcNAc(b1-4)GlcNAc
# Procedure, shortened: as §1
# [31] = molecular target: Neu5Ac(a2-3)Gal(b1-4)GlcNAc(b1-2)Man(a1-3)[Neu5Ac(a2-3)Gal(b1-4)GlcNAc(b1-2)Man(a1-6)]Man(b1-4)GlcNAc(b1-4)GlcNAc
# Procedure, shortened: as §1
# [32] = molecular target: Neu5Ac(a2-3)Gal(b1-4)GlcNAc(b1-2)Man(a1-3)[Neu5Ac(a2-3)Gal(b1-4)GlcNAc(b1-2)Man(a1-6)]Man(b1-4)GlcNAc(b1-4)[Fuc(a1-6)]GlcNAc
# Procedure, shortened: as §1
# [33] = molecular target: Neu5Ac(a2-3)Gal(b1-4)GlcNAc(b1-2)Man(a1-3)[Neu5Ac(a2-6)Gal(b1-4)GlcNAc(b1-2)Man(a1-6)]Man(b1-4)GlcNAc(b1-4)GlcNAc
# Procedure, shortened: as §1
binder,measurement,setting,value
LF82 (Escherichia coli) (protein) ADWGPCRTASGDPFIFVTSFTKNIQNPTDNVTGQTYPDFYQWALGDKYSGVCECPSPNPTEARPTLYKTESTLAAGHNSTYFKITNNLEVSTRVYIANVGNVQVPFINKSNSQPGRECDQPTFGWTTGSKGQLSLYIAKPFVGEQNIPQTIIVSVFGTKKENVYSSVPISQVLLSGKVTVTQGCELAAGTSLDIDFGEYQAHDFKGRTGQPPQNVQKIQKELTFNCTNISDGVHIYLSLEGTPNAAYPSAISLGNADVGAVIEDGKGNILKPNDSNSLLEMNPGSLYEYVKRKVTTTITAYPVSTTGKLPAAGDYSGVATMHVELDGGGGGGGGGGATTDLGAKGTLKFSLKISQGHHHHHH,glycan array binding signal (z-score),[1],-1.06
same,glycan array binding signal (z-score),[2],-0.805
same,glycan array binding signal (z-score),[3],-0.032
same,glycan array binding signal (z-score),[4],-0.39
same,glycan array binding signal (z-score),Man(a1-6)Man,-0.439
same,glycan array binding signal (z-score),Man(b1-4)GlcNAc,0.456
same,glycan array binding signal (z-score),MurNAc(b1-4)GlcNAc,-0.235
same,glycan array binding signal (z-score),Neu5Ac(a2-3)Gal,0.191
same,glycan array binding signal (z-score),[5],0.245
same,glycan array binding signal (z-score),[6],-0.134
same,glycan array binding signal (z-score),[7],0.851
same,glycan array binding signal (z-score),[8],0.664
same,glycan array binding signal (z-score),[9],0.27
same,glycan array binding signal (z-score),[10],0.435
same,glycan array binding signal (z-score),[11],-0.198
same,glycan array binding signal (z-score),[12],-0.396
same,glycan array binding signal (z-score),[13],-0.92
same,glycan array binding signal (z-score),[14],0.215
same,glycan array binding signal (z-score),[15],4.88
same,glycan array binding signal (z-score),[16],-0.469
same,glycan array binding signal (z-score),[17],0.773
same,glycan array binding signal (z-score),[18],-1.31
same,glycan array binding signal (z-score),[19],-0.373
same,glycan array binding signal (z-score),[20],-0.44
same,glycan array binding signal (z-score),[21],0.215
same,glycan array binding signal (z-score),[22],-0.355
same,glycan array binding signal (z-score),[23],-0.501
same,glycan array binding signal (z-score),[24],-0.063
same,glycan array binding signal (z-score),[25],0.053
same,glycan array binding signal (z-score),[26],2.35
same,glycan array binding signal (z-score),[27],-0.87
same,glycan array binding signal (z-score),Neu5Ac(a2-3)Gal(b1-4)Glc,0.503
same,glycan array binding signal (z-score),[28],-0.725
same,glycan array binding signal (z-score),[29],1.36
same,glycan array binding signal (z-score),[30],-0.202
same,glycan array binding signal (z-score),[31],-0.284
same,glycan array binding signal (z-score),[32],1.48
same,glycan array binding signal (z-score),[33],0.122

# Already shown: entries from further up.
binder,measurement,setting,value
LF82 (Escherichia coli) (protein) ADWGPCRTASGDPFIFVTSFTKNIQNPTDNVTGQTYPDFYQWALGDKYSGVCECPSPNPTEARPTLYKTESTLAAGHNSTYFKITNNLEVSTRVYIANVGNVQVPFINKSNSQPGRECDQPTFGWTTGSKGQLSLYIAKPFVGEQNIPQTIIVSVFGTKKENVYSSVPISQVLLSGKVTVTQGCELAAGTSLDIDFGEYQAHDFKGRTGQPPQNVQKIQKELTFNCTNISDGVHIYLSLEGTPNAAYPSAISLGNADVGAVIEDGKGNILKPNDSNSLLEMNPGSLYEYVKRKVTTTITAYPVSTTGKLPAAGDYSGVATMHVELDGGGGGGGGGGATTDLGAKGTLKFSLKISQGHHHHHH,glycan array binding signal (z-score),[8],0.664
same,glycan array binding signal (z-score),[9],0.27
